# This is one part of the list.
# B1: LlpA (Burkholderia cenocepacia) (protein)
# chain: MGSSHHHHHHSSGLVPRGSHKILGSNETLSAGNVVYSDNGQYHLAMQTDGNLVVYGPTGAVWQSQTSGSGGNRAVMQGDGNLVIYRADNTAAWSSKTAHPGAFLAVQDDGNVVIYWPRPAWASNTSDPATQQSAESKYLASGSTMSAGQTVTVAQYMLVFQADGNLVLYKNGGNPIWSTGTQGKGATYAVMQSDGNFVIYAGSTALWSTKTNGANGAQLVLQSDGNLVIYAPTAAWSTKFGLVTAPTSTSTSNNGPGSGICVGVCPPHPLNGNPFSPVGVGTTGLGFPTPGYPGAAF
# Tests used:
# Assay in all cases: glycan array binding signal (z-score within array); higher = stronger binding
# Conditions in all cases: glycan notation: IUPAC condensed, linker removed
# [1] = target: GlcNAc(a1-6)Gal(b1-4)GlcNAc
# Method in brief: (§1)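 Glycan array binding is given as a within-array Z-score, which can be read as non-binding when negative. The arrays, 3228 of them, came from the Consortium for Functional Glycomics database and were retained only where the protein sequence was available. Z-scores were averaged across arrays of the same protein sequence at different concentrations or buffers and across linkers.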
# [2] = target: GlcNAc(b1-2)Gal(b1-3)GalNAc
# Method in brief: as §1
# [3] = target: GlcNAc(b1-2)Man(a1-3)[GlcNAc(b1-2)Man(a1-6)]Man(b1-4)GlcNAc(b1-4)GlcNAc
# Method in brief: as §1
# [4] = target: GlcNAc(b1-2)Man(a1-3)[GlcNAc(b1-2)Man(a1-6)]Man(b1-4)GlcNAc(b1-4)[Fuc(a1-6)]GlcNAc
# Method in brief: as §1
# [5] = target: GlcNAc(b1-2)Man(a1-3)[GlcNAc(b1-4)][GlcNAc(b1-2)Man(a1-6)]Man(b1-4)GlcNAc(b1-4)GlcNAc
# Method in brief: as §1
# [6] = target: GlcNAc(b1-2)Man(a1-3)[GlcNAc(b1-4)][GlcNAc(b1-2)Man(a1-6)]Man(b1-4)GlcNAc(b1-4)[Fuc(a1-6)]GlcNAc
# Method in brief: as §1
# [7] = target: GlcNAc(b1-2)[GlcNAc(b1-4)]Man(a1-3)[GlcNAc(b1-2)Man(a1-6)]Man(b1-4)GlcNAc(b1-4)GlcNAc
# Method in brief: as §1
# [8] = target: GlcNAc(b1-2)[GlcNAc(b1-4)]Man(a1-3)[GlcNAc(b1-4)][GlcNAc(b1-2)Man(a1-6)]Man(b1-4)GlcNAc(b1-4)GlcNAc
# Method in brief: as §1
# [9] = target: GlcNAc(b1-2)[GlcNAc(b1-4)]Man(a1-3)[GlcNAc(b1-4)][GlcNAc(b1-2)[GlcNAc(b1-6)]Man(a1-6)]Man(b1-4)GlcNAc(b1-4)GlcNAc
# Method in brief: as §1
# [10] = target: GlcNAc(b1-2)[GlcNAc(b1-4)]Man(a1-3)[GlcNAc(b1-4)][GlcNAc(b1-2)[GlcNAc(b1-6)]Man(a1-6)]Man(b1-4)GlcNAc(b1-4)[Fuc(a1-6)]GlcNAc
# Method in brief: as §1
# [11] = target: GlcNAc(b1-2)[GlcNAc(b1-6)]Man(a1-6)[GlcNAc(b1-2)Man(a1-3)]Man(b1-4)GlcNAc(b1-4)GlcNAc
# Method in brief: as §1
# [12] = target: GlcNAc(b1-2)[GlcNAc(b1-6)]Man(a1-6)[GlcNAc(b1-2)Man(a1-3)]Man(b1-4)GlcNAc(b1-4)[Fuc(a1-6)]GlcNAc
# Method in brief: as §1
# [13] = target: GlcNAc(b1-2)[GlcNAc(b1-6)]Man(a1-6)[GlcNAc(b1-4)][GlcNAc(b1-2)Man(a1-3)]Man(b1-4)GlcNAc(b1-4)GlcNAc
# Method in brief: as §1
# GlcNAc(b1-3)Fuc = target: GlcNAc(b1-3)Fuc
# Method in brief: as §1
# GlcNAc(b1-3)Gal = target: GlcNAc(b1-3)Gal
# Method in brief: as §1
# [14] = target: GlcNAc(b1-3)Gal(b1-3)GalNAc
# Method in brief: as §1
# GlcNAc(b1-3)Gal(b1-4)Glc = target: GlcNAc(b1-3)Gal(b1-4)Glc
# Method in brief: as §1
# [15] = target: GlcNAc(b1-3)Gal(b1-4)GlcNAc
# Method in brief: as §1
# [16] = target: GlcNAc(b1-3)Gal(b1-4)GlcNAc(b1-2)Man(a1-3)[GlcNAc(b1-3)Gal(b1-4)GlcNAc(b1-2)Man(a1-6)]Man(b1-4)GlcNAc(b1-4)GlcNAc
# Method in brief: as §1
# [17] = target: GlcNAc(b1-3)Gal(b1-4)GlcNAc(b1-2)Man(a1-3)[GlcNAc(b1-3)Gal(b1-4)GlcNAc(b1-2)Man(a1-6)]Man(b1-4)GlcNAc(b1-4)[Fuc(a1-6)]GlcNAc
# Method in brief: as §1
# [18] = target: GlcNAc(b1-3)Gal(b1-4)GlcNAc(b1-2)[GlcNAc(b1-3)Gal(b1-4)GlcNAc(b1-6)]Man(a1-6)[GlcNAc(b1-3)Gal(b1-4)GlcNAc(b1-2)Man(a1-3)]Man(b1-4)GlcNAc(b1-4)GlcNAc
# Method in brief: as §1
# [19] = target: GlcNAc(b1-3)Gal(b1-4)GlcNAc(b1-3)Gal(b1-4)GlcNAc
# Method in brief: as §1
# [20] = target: GlcNAc(b1-3)Gal(b1-4)GlcNAc(b1-3)Gal(b1-4)GlcNAc(b1-2)Man(a1-3)[GlcNAc(b1-3)Gal(b1-4)GlcNAc(b1-3)Gal(b1-4)GlcNAc(b1-2)Man(a1-6)]Man(b1-4)GlcNAc(b1-4)GlcNAc
# Method in brief: as §1
# [21] = target: GlcNAc(b1-3)Gal(b1-4)GlcNAc(b1-3)Gal(b1-4)GlcNAc(b1-2)Man(a1-3)[GlcNAc(b1-3)Gal(b1-4)GlcNAc(b1-3)Gal(b1-4)GlcNAc(b1-2)Man(a1-6)]Man(b1-4)GlcNAc(b1-4)[Fuc(a1-6)]GlcNAc
# Method in brief: as §1
# [22] = target: GlcNAc(b1-3)Gal(b1-4)GlcNAc(b1-3)Gal(b1-4)GlcNAc(b1-2)[GlcNAc(b1-3)Gal(b1-4)GlcNAc(b1-3)Gal(b1-4)GlcNAc(b1-6)]Man(a1-6)[GlcNAc(b1-3)Gal(b1-4)GlcNAc(b1-3)Gal(b1-4)GlcNAc(b1-2)Man(a1-3)]Man(b1-4)GlcNAc(b1-4)[Fuc(a1-6)]GlcNAc
# Method in brief: as §1
# [23] = target: GlcNAc(b1-3)Gal(b1-4)GlcNAc(b1-3)Gal(b1-4)GlcNAc(b1-3)Gal(b1-4)GlcNAc(b1-2)Man(a1-3)[GlcNAc(b1-3)Gal(b1-4)GlcNAc(b1-3)Gal(b1-4)GlcNAc(b1-3)Gal(b1-4)GlcNAc(b1-2)Man(a1-6)]Man(b1-4)GlcNAc(b1-4)GlcNAc
# Method in brief: as §1
# [24] = target: GlcNAc(b1-3)Gal(b1-4)GlcNAc(b1-3)Gal(b1-4)GlcNAc(b1-3)Gal(b1-4)GlcNAc(b1-2)Man(a1-3)[GlcNAc(b1-3)Gal(b1-4)GlcNAc(b1-3)Gal(b1-4)GlcNAc(b1-3)Gal(b1-4)GlcNAc(b1-2)Man(a1-6)]Man(b1-4)GlcNAc(b1-4)[Fuc(a1-6)]GlcNAc
# Method in brief: as §1
# [25] = target: GlcNAc(b1-3)Gal(b1-4)GlcNAc(b1-3)Gal(b1-4)GlcNAc(b1-3)Gal(b1-4)GlcNAc(b1-2)[GlcNAc(b1-3)Gal(b1-4)GlcNAc(b1-3)Gal(b1-4)GlcNAc(b1-3)Gal(b1-4)GlcNAc(b1-6)]Man(a1-6)[GlcNAc(b1-3)Gal(b1-4)GlcNAc(b1-3)Gal(b1-4)GlcNAc(b1-3)Gal(b1-4)GlcNAc(b1-2)Man(a1-3)]Man(b1-4)GlcNAc(b1-4)[Fuc(a1-6)]GlcNAc
# Method in brief: as §1
# [26] = target: GlcNAc(b1-3)Gal(b1-4)GlcNAc(b1-3)Gal(b1-4)GlcNAc(b1-3)Gal(b1-4)GlcNAc(b1-3)Gal(b1-4)GlcNAc(b1-2)Man(a1-3)[GlcNAc(b1-3)Gal(b1-4)GlcNAc(b1-3)Gal(b1-4)GlcNAc(b1-3)Gal(b1-4)GlcNAc(b1-3)Gal(b1-4)GlcNAc(b1-2)Man(a1-6)]Man(b1-4)GlcNAc(b1-4)GlcNAc
# Method in brief: as §1
# [27] = target: GlcNAc(b1-3)Gal(b1-4)GlcNAc(b1-3)Gal(b1-4)GlcNAc(b1-3)Gal(b1-4)GlcNAc(b1-3)Gal(b1-4)GlcNAc(b1-2)Man(a1-3)[GlcNAc(b1-3)Gal(b1-4)GlcNAc(b1-3)Gal(b1-4)GlcNAc(b1-3)Gal(b1-4)GlcNAc(b1-3)Gal(b1-4)GlcNAc(b1-2)Man(a1-6)]Man(b1-4)GlcNAc(b1-4)[Fuc(a1-6)]GlcNAc
# Method in brief: as §1
# [28] = target: GlcNAc(b1-3)Gal(b1-4)GlcNAc(b1-3)Gal(b1-4)GlcNAc(b1-3)Gal(b1-4)GlcNAc(b1-3)Gal(b1-4)GlcNAc(b1-2)[GlcNAc(b1-3)Gal(b1-4)GlcNAc(b1-3)Gal(b1-4)GlcNAc(b1-3)Gal(b1-4)GlcNAc(b1-3)Gal(b1-4)GlcNAc(b1-6)]Man(a1-6)[GlcNAc(b1-3)Gal(b1-4)GlcNAc(b1-3)Gal(b1-4)GlcNAc(b1-3)Gal(b1-4)GlcNAc(b1-3)Gal(b1-4)GlcNAc(b1-2)Man(a1-3)]Man(b1-4)GlcNAc(b1-4)[Fuc(a1-6)]GlcNAc
# Method in brief: as §1
# [29] = target: GlcNAc(b1-3)Gal(b1-4)GlcNAc(b1-3)Gal(b1-4)GlcNAc(b1-3)GalNAc
# Method in brief: as §1
# [30] = target: GlcNAc(b1-3)Gal(b1-4)GlcNAc(b1-3)GalNAc
# Method in brief: as §1
# [31] = target: GlcNAc(b1-3)Gal(b1-4)GlcNAc(b1-3)[GlcNAc(b1-3)Gal(b1-4)GlcNAc(b1-3)]GalNAc
# Method in brief: as §1
# [32] = target: GlcNAc(b1-3)Gal(b1-4)GlcNAc(b1-6)[Gal(b1-3)]GalNAc
# Method in brief: as §1
# [33] = target: GlcNAc(b1-3)Gal(b1-4)GlcNAc(b1-6)[GlcNAc(b1-3)Gal(b1-3)]GalNAc
# Method in brief: as §1
# [34] = target: GlcNAc(b1-3)Gal(b1-4)GlcNAc(b1-6)[GlcNAc(b1-3)]Gal(b1-4)GlcNAc
# Method in brief: as §1
binder,measurement,setting,value
B1,glycan array binding signal (z-score),[1],-0.035
same,glycan array binding signal (z-score),[2],-0.078
same,glycan array binding signal (z-score),[3],-0.014
same,glycan array binding signal (z-score),[4],-0.074
same,glycan array binding signal (z-score),[5],0.686
same,glycan array binding signal (z-score),[6],-0.623
same,glycan array binding signal (z-score),[7],-0.382
same,glycan array binding signal (z-score),[8],0.096
same,glycan array binding signal (z-score),[9],-0.839
same,glycan array binding signal (z-score),[10],-0.499
same,glycan array binding signal (z-score),[11],-0.37
same,glycan array binding signal (z-score),[12],-1.16
same,glycan array binding signal (z-score),[13],0.298
same,glycan array binding signal (z-score),GlcNAc(b1-3)Fuc,0.48
same,glycan array binding signal (z-score),GlcNAc(b1-3)Gal,-1.64
same,glycan array binding signal (z-score),[14],0.088
same,glycan array binding signal (z-score),GlcNAc(b1-3)Gal(b1-4)Glc,0.332
same,glycan array binding signal (z-score),[15],-0.175
same,glycan array binding signal (z-score),[16],-1.55
same,glycan array binding signal (z-score),[17],0.34
same,glycan array binding signal (z-score),[18],-0.511
same,glycan array binding signal (z-score),[19],0.538
same,glycan array binding signal (z-score),[20],0.803
same,glycan array binding signal (z-score),[21],1.5
same,glycan array binding signal (z-score),[22],1.97
same,glycan array binding signal (z-score),[23],-0.006
same,glycan array binding signal (z-score),[24],0.114
same,glycan array binding signal (z-score),[25],2.12
same,glycan array binding signal (z-score),[26],1.56
same,glycan array binding signal (z-score),[27],0.218
same,glycan array binding signal (z-score),[28],1.97
same,glycan array binding signal (z-score),[29],0.239
same,glycan array binding signal (z-score),[30],0.421
same,glycan array binding signal (z-score),[31],0.773
same,glycan array binding signal (z-score),[32],-0.276
same,glycan array binding signal (z-score),[33],0.128
same,glycan array binding signal (z-score),[34],0.744

# Retrieved one by one from the entries so far, two records:
binder,measurement,setting,value
B1,glycan array binding signal (z-score),[24],0.114
same,glycan array binding signal (z-score),[22],1.97

# Reference: the supplement of paper PMC8728848
